Laboratory results: paper PMC11389407
No constants are given. Whether binding was seen depends on the method and setting. For some of these results: Binding seen in cells or lysates may run through a third protein. Some binding calls cover weakened binding; strength is not graded here.

Sequences of proteins named here, by UniProt entry; tags and fusion partners are left off. A change or cut given only in a name is not applied to a line headed by its entry.
UniProt P08069: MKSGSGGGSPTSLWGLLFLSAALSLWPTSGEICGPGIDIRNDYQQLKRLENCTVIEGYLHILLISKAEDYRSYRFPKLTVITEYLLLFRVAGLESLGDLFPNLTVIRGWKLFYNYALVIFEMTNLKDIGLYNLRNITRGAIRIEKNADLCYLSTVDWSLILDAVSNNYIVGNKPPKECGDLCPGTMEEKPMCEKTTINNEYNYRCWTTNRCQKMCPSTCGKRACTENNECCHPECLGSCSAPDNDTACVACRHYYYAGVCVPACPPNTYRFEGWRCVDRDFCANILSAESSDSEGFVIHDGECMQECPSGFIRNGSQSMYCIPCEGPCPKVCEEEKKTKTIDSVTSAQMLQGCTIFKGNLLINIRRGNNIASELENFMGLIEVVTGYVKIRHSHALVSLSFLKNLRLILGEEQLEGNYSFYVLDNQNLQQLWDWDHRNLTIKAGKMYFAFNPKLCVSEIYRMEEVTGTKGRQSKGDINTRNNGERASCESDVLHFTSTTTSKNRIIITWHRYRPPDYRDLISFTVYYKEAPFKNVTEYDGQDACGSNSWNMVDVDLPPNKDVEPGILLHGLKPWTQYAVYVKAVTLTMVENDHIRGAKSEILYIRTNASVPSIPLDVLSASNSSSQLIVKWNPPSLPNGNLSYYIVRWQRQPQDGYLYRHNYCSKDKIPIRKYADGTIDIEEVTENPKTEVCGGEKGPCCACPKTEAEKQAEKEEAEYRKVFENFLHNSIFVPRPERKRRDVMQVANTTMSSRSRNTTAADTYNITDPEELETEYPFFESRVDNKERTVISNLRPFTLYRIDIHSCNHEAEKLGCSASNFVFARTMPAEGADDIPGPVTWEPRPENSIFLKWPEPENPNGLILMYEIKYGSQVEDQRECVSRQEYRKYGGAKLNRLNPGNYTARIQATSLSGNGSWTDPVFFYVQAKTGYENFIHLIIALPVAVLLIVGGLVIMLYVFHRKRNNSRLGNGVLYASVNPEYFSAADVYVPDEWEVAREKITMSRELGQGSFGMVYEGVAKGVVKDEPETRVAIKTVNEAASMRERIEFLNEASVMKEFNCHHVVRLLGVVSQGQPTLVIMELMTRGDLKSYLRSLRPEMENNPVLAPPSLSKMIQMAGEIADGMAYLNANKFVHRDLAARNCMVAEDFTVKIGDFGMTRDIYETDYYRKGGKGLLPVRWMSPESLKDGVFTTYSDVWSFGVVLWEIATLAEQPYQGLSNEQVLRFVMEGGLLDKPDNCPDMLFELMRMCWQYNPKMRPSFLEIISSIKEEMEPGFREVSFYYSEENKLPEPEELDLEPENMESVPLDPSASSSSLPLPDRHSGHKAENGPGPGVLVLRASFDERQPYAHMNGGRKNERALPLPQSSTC

Experiments:
[1] = target: RSV F (codon-optimized, in pcDNA3.1(+)) expressed in HEK293T cells (respiratory syncytial virus (strain of the construct not stated)) (UniProt P03420); test: co-IP; HEK293T transfected with plasmids expressing IGF1R, F-WT or F-K394R, with or without CL-A3-7 (20 µM) in the medium; lysates precipitated with anti-RSV F antibody on protein A/G beads, blotted for IGF1R
[2] = target: RSV F with the K394R mutation (codon-optimized, in pcDNA3.1(+)) expressed in HEK293T cells (respiratory syncytial virus (strain of the construct not stated)) (UniProt P03420); test: as above
[3] = target: RSV F (codon-optimized, in pcDNA3.1(+)) expressed in HEK293T cells (respiratory syncytial virus (strain of the construct not stated)) (UniProt P03420); test: flow cytometry on cells; HEK293T transfected with F-WT or F-K394R, soluble IGF1R (20 µg/mL) premixed with CL-A3-7 (20 µM) or not, added for 5 h; cells fixed, stained with anti-IGF1R and motavizumab; only the binder purified
[4] = target: RSV F with the K394R mutation (codon-optimized, in pcDNA3.1(+)) expressed in HEK293T cells (respiratory syncytial virus (strain of the construct not stated)) (UniProt P03420); test: as above

Substance | binding [1] | binding [2] | binding [3] | binding [4]
IGF1R expressed from a pcDNA3.1 plasmid in HEK293T cells (from UniProt P08069 31-1367) (receptor) | binds | binds | – | –
extracellular domain of the human IGF1R protein (Met 1−Asn 932) (from UniProt P08069 31-932) (domain or fragment) | – | – | binds | binds
